PubChem BioAssay AID504791, Drosophila RNAi Screening Center – 2011

- Assay: 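Factors in Argonaute-based small RNA production and activity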 (primary screen)
- System: Drosophila S2-derived reporter cells
- Reagent: long dsRNA against Drosophila genes, about 150-250 ng dsRNA per well (siRNA assay); about 80-120 ng (miRNA assay)
- Duration: about 5 days (siRNA assay); about 4 days (miRNA assay)
- Conditions: copper sulfate induction of reporters: 25 µM (siRNA assay); 200 mM stated (miRNA assay), 1-2 days before reading
- Read-out: 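Per-well ratio of Renilla over firefly light, expressed relative to that plate's average ratio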
- Direction: siRNA reporter hit score: higher = 3 marks a strong hit with raised ratio; -3 a strong hit with lowered ratio
- Active means: 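a well was a first-pass pick when its plate-scaled ratio rose above 1.5 (siRNA assay) or 1.6 (miRNA assay), or dropped below 0.6; a gene counted only if two separate dsRNAs agreed on retest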
In all, the deposit lists about 23,000 reagents; shown is a random part of those with a known target gene and a result. Of all reagents, 199 (0.86%) were called active. 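Plate-scaled ratios behind the calls are not deposited; printed light signals are raw; many rows marked increased or decreased are still called inactive.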 Unmarked entries are inactive. Reagents against one gene are numbered here. A plus sign joins genes that one reagent is predicted to hit. No sequences are given here.

| Gene | reagent | siRNA reporter hit score | stable siRNA reporter change | miRNA reporter change | stable assay Renilla, run 1 (luminescence) | stable assay firefly, run 1 (luminescence) |
| --- | --- | --- | --- | --- | --- | --- |
| endos (GeneID 39554) | 1 | – | reporter ratio lowered past the hit cutoff | – | 11499 | 7.26e5 |
| Rab4 (GeneID 36992) | 1 | – | – | – | 12383 | 3.73e5 |
| Ercc1 (GeneID 36654) | 1 | – | – | – | 8259 | 3.18e5 |
| CG9521 (GeneID 32414) | 1 | – | – | – | 5507 | 2.84e5 |
| Psn (GeneID 40260) | 1 | – | – | – | 6683 | 4.33e5 |
| CG6733 (GeneID 42731) | 1 | – | – | – | 8150 | 4.62e5 |
| frj (GeneID 33900) | 1 | – | – | – | 14799 | 5.98e5 |
| CG4287 (GeneID 41939) | 1 | – | – | – | 11292 | 4.92e5 |
| Tango14 (GeneID 33298) | 1 | – | – | – | 8192 | 4.01e5 |
| CG6527 (GeneID 39197) | 1 | – | – | – | 5754 | 5.57e5 |
| CG10280 (GeneID 40740) | 1 | – | – | – | 5546 | 3.73e5 |
| CG31778 (GeneID 261616) | 1 | – | – | – | 23998 | 1.92e5 |
| CG2955 (GeneID 33622) | 1 | – | – | – | 3.06e5 | 7.70e5 |
| CG12054 (GeneID 43694) | 1 | 3 | – | – | 6088 | 2.26e5 |
| CG12054 (GeneID 43694) | 2 | – | – | – | 5232 | 3.24e5 |
| Arp3 (GeneID 38898) | 1 | – | – | – | 8974 | 4.69e5 |
| spel1 (GeneID 34842) | 1 | – | – | – | 7631 | 4.17e5 |
| mtd (GeneID 45467) | 1 | – | – | – | 7471 | 3.71e5 |
| mtd (GeneID 45467) | 2 | – | – | – | 7346 | 4.09e5 |
| mtd (GeneID 45467) | 3 | – | – | – | 7639 | 3.83e5 |
| Grip71 (GeneID 35130) | 1 | – | – | – | 7611 | 5.96e5 |
| CG32835 (retired record) (GeneID 318239) | 1 | – | – | – | 5308 | 5.69e5 |
| Su(P) (GeneID 39856) | 1 | – | – | – | 6767 | 3.95e5 |
| CG17267 (GeneID 42454) | 1 | – | – | – | 6962 | 2.93e5 |
| Ir51b (GeneID 246442) | 1 | – | – | – | 3892 | 3.00e5 |
| Or98P (GeneID 3772262) | 1 | – | – | – | 5406 | 4.87e5 |
| Elba2 (GeneID 33442) | 1 | – | – | – | 15759 | 6.23e5 |
| CG9822 (GeneID 37440) | 1 | – | – | – | 7176 | 4.28e5 |
| Vps45 (GeneID 41153) | 1 | – | – | – | 6950 | 3.73e5 |
| His2B:CG33894 + His2B:CG33872 + His2B:CG33902 + 20 more | 1 | – | – | reporter ratio raised past the hit cutoff | 5196 | 4.19e5 |
| CG32606 (retired record) (GeneID 318111) | 1 | 3 | – | – | 3383 | 2.15e5 |
| CG32606 (retired record) (GeneID 318111) | 2 | – | – | – | 5215 | 4.91e5 |
| CG32606 (retired record) (GeneID 318111) | 3 | – | reporter ratio lowered past the hit cutoff | – | 2895 | 4.42e5 |
| CG32606 (retired record) (GeneID 318111) | 4 | – | – | – | 3564 | 4.44e5 |
| CG32606 (retired record) (GeneID 318111) | 5 | – | – | – | 4448 | 2.95e5 |
| betaTry (GeneID 47901) | 1 | – | – | – | 5300 | 3.75e5 |
| betaTry (GeneID 47901) | 2 | – | – | – | 8643 | 5.40e5 |
| prod (GeneID 37187) | 1 | – | – | – | 9641 | 3.96e5 |
| Pebp1 (GeneID 42644) | 1 | – | – | – | 6874 | 3.76e5 |
| CG34425 (GeneID 5740837) | 1 | – | – | – | 6724 | 3.35e5 |
| CG34425 (GeneID 5740837) | 2 | – | – | – | 4183 | 1.77e5 |
| Or82a (GeneID 318778) | 1 | – | – | – | 7186 | 7.09e5 |
| CG16952 (GeneID 32546) | 1 | – | – | – | 5858 | 3.43e5 |
| Syx16 (GeneID 33034) | 1 | – | – | – | 8938 | 4.90e5 |
| CG15040 (GeneID 32848) | 1 | – | – | – | 4088 | 5.19e5 |
| CG15040 (GeneID 32848) | 2 | – | – | – | 8255 | 5.16e5 |
| wam (GeneID 42755) | 1 | – | – | – | 7215 | 3.08e5 |
| IFT54 (GeneID 41739) | 1 | – | – | – | 6479 | 4.65e5 |
| FucTD (GeneID 38164) | 1 | – | – | – | 6451 | 3.75e5 |
| ND-B22 (GeneID 34747) | 1 | – | – | – | 7027 | 6.14e5 |
| Esp (GeneID 42962) | 1 | – | – | – | 6667 | 3.55e5 |
| CG31211 (GeneID 41443) | 1 | – | – | – | 4483 | 3.33e5 |
| CG31211 (GeneID 41443) | 2 | – | – | – | 8418 | 3.99e5 |
| CG31211 (GeneID 41443) | 3 | – | – | reporter ratio raised past the hit cutoff | 10592 | 4.26e5 |
| karr (GeneID 50257) | 1 | – | – | – | 6426 | 4.88e5 |
| Desi (GeneID 41292) | 1 | – | – | – | 7323 | 3.82e5 |
| CG3356 (GeneID 37876) | 1 | – | – | – | 8134 | 1.47e6 |

Entries listed so far whose gene name begins with E or e (4):
| Gene | reagent | siRNA reporter hit score | stable siRNA reporter change | miRNA reporter change | stable assay Renilla, run 1 (luminescence) | stable assay firefly, run 1 (luminescence) |
| --- | --- | --- | --- | --- | --- | --- |
| endos (GeneID 39554) | 1 | – | reporter ratio lowered past the hit cutoff | – | 11499 | 7.26e5 |
| Ercc1 (GeneID 36654) | 1 | – | – | – | 8259 | 3.18e5 |
| Elba2 (GeneID 33442) | 1 | – | – | – | 15759 | 6.23e5 |
| Esp (GeneID 42962) | 1 | – | – | – | 6667 | 3.55e5 |
